Measurements published in patent publication US20230173029A1, “TREATMENT OF CARDIAC REMODELLING” (UNIVERSITETET I OSLO, priority 2020, published 2023).

System: Dahl salt-sensitive (Dahl/SS) male rats
Test: Autopsy: body weight, heart weight and heart weight to body weight ratio in hypertensive Dahl/SS rats
Format: in vivo, rat
Conditions: HT Dahl/SS rats on high salt diet, at 6 weeks, mean ± SEM
Protocol: A total of 29 adult Dahl salt-sensitive (Dahl/SS) male rats with an initial weight of 150 to 200 g were included in the study. Rats were purchased from Charles River Laboratories (USA) and housed in a room with a 12/12-hour light cycle, a temperature of 21° C., and a humidity of 55%. Rats were maintained on a normal salt diet up to seven weeks of age. Twenty-two Dahl/SS were then randomly switched to a high salt diet for 6 weeks to induce hypertension, whilst 7 rats were kept normotensive (NT) on normal salt diet. Drinking water and food was provided ad libitum.
After 2 weeks of high salt diet, 15 hypertensive (HT) rats were started on treatment with proANP31-67. Rats treated with proANP31-67 received one of two dosages: 50 ng/kg/day (n=8) or 100 ng/kg/day (n=7). A total of 14 rats received only vehicle: control rats on a normal salt diet (n=7); and HT rats on a high salt diet (n=7). Rats were randomly assigned to the 3 groups (i.e. control normal salt; high salt untreated; high salt plus treatment).
Drug or vehicle was delivered via Alzet osmotic mini-pumps (Model 2004; mean pumping rate […], mean fill volume […]) implanted subcutaneously (as instructed by the manufacturer) for 28 days. Animals were treated with buprenorphine (0.05 mg/kg s.c.) as analgesic 30 minutes before and up to 1 day following implantation of pumps. […]

proANP31-67: Human proANP31-67, linear peptide fragment of proANP consisting of SEQ ID NO: 1; also known as vessel dilator, VSDL (EVVPPQVLSEPNEEAGAALSPLPEVPPWTGEVSPAQR; listed as Homo sapiens)
BW (body weight) (25 ng/kg/day s.c.): 354.0 ± 8.3 g
BW (body weight) (50 or 100 ng/kg/day s.c. (pooled) for 28 days): 348.6 ± 4.4 g
